## Results of single-concentration screens

Chains of the proteins cited; added tags and fusions are not shown.
UniProt P9WPC5, whole entry: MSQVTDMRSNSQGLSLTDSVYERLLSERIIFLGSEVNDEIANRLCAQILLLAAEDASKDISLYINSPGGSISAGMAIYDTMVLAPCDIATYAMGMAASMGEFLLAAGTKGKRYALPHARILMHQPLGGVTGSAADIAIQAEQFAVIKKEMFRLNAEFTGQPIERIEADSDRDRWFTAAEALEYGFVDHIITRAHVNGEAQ
UniProt P9WPC3, whole entry partner: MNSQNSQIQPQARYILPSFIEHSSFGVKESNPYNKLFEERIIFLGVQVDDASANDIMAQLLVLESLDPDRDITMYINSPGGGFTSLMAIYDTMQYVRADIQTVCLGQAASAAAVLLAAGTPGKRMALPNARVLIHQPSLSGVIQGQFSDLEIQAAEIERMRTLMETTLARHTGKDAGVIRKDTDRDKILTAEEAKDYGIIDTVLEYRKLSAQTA
UniProt I6X8D2, whole entry: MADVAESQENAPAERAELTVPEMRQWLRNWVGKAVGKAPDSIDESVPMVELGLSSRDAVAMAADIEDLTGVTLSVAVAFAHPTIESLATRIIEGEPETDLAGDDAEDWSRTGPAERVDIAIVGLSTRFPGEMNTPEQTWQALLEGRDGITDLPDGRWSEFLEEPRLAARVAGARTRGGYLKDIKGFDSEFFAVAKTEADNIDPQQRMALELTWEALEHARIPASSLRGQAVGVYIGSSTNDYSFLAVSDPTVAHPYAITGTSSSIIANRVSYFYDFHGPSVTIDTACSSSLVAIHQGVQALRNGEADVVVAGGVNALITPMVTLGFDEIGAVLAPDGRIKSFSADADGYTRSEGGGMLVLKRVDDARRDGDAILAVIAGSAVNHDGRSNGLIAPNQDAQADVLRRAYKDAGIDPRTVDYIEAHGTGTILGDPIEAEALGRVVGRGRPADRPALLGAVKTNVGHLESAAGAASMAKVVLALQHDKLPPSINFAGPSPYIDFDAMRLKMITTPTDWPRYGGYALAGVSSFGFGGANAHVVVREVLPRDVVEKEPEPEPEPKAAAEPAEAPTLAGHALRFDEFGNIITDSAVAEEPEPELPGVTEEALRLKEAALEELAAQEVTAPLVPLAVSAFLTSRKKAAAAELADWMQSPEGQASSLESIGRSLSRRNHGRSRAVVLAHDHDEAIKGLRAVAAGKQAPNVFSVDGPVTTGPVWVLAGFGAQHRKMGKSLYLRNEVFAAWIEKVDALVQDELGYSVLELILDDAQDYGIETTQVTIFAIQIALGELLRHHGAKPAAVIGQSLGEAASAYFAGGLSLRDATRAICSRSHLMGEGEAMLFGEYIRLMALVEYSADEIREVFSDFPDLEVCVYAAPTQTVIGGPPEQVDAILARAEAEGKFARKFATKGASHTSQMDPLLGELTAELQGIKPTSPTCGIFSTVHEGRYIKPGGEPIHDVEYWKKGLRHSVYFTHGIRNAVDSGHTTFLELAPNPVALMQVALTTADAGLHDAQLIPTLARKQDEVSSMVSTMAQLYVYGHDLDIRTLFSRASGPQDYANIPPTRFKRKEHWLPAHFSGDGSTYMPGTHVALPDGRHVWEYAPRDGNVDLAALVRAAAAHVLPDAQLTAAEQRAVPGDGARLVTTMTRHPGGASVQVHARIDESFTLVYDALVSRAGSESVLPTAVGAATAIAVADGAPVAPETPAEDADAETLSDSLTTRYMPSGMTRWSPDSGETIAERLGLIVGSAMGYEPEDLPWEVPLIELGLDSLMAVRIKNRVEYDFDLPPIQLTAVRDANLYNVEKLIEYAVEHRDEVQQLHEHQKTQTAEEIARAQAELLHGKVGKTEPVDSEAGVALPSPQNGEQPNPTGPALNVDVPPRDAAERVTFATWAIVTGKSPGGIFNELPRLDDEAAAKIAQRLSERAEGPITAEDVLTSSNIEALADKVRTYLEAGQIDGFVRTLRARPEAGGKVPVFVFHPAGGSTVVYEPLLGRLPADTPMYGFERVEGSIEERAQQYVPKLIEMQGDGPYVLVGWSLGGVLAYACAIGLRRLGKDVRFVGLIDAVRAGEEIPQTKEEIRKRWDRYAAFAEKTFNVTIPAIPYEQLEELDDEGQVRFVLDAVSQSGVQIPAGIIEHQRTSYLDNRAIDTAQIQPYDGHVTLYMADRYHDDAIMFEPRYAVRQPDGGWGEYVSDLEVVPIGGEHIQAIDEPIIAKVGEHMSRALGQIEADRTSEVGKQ

ClpP1P2: 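ClpP1P2, Mycobacterium tuberculosis (UniProt P9WPC5 and UniProt P9WPC3). Protease assay of ClpP1P2, read by the AMC dye that it sets free. Compounds at 50 µM. Higher reads as stronger inhibition, judged from the few compounds that gave an IC50. Most other retested compounds had strongly negative values. About 69,000 compounds were tested under these conditions; 0.015% (about 10) showed 50% or more at least once.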
Pks13 thioesterase: 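Enzyme assay of the thioesterase domain of polyketide synthase 13; the read-out is not stated. Target: Polyketide synthase Pks13, Mycobacterium tuberculosis (UniProt I6X8D2). Concentration: 30 µM. The record gives no direction; the compounds picked for IC50 retests had high values, so higher reads as stronger inhibition. Size under these conditions: about 67,000 compounds, about 300 of them at 50% or above in at least one test.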

The filed quantity is “Percent Effect” (%).
The controls that fix the scale are not given in the record; negative values are as filed.
Compounds were drawn at random from those tested, without regard to their results.

structure,ClpP1P2,Pks13 thioesterase
O=C(CCc1cccs1)Nc1ccnn1C1CCS(=O)(=O)C1 (configuration not stated),-0.0345,-4.063
CCC(=O)NCC(=O)Nc1ncc(I)cc1C,-11.05,0.1005
CCOc1ccccc1C(CC(=O)N(C)C)NC(C)=O (configuration not stated),1.707,-18.63
Cc1ocnc1C(=O)N1CCN(C(=O)CC(C)C)[C@@H]2CS(=O)(=O)C[C@@H]21,16.63,15.54
CCn1c(Nc2ccccc2OC)nc2c(C)nn(C)c2c1=O,-0.8157,-25.09
COCCOc1ncccc1C(=O)N(C)c1ccc(OC)c(OC)c1,-1.549,1.762
CC(C)(C)c1cc(=O)[nH]c(C2(N)CCCC2)n1,2.577,-7.666
COCCNS(=O)(=O)c1cccc2c1CN(C(=O)c1ccoc1)CC2,-5.001,-39.13
c1ccc(-c2nc(CNC3CCc4ncnn4C3)co2)cc1 (configuration not stated),5.413,-9.854
CC(C)CN1C[C@@H]2CN(C(=O)[C@H]3CCCO3)C[C@@H]2C1=O,3.965,-5.236
CC(C)=CCC1(C(=O)O)CCCN(c2cc(N)ncn2)C1 (configuration not stated),0.1977,4.26
CCc1nc(C)c(C2CC(=O)Nc3c2c(-c2ccccn2)nn3C)[nH]1 (configuration not stated),-11.61,-24.6
O=C1[C@H]2CN(C3CCOCC3)C[C@H]2CN1Cc1cccc(F)c1,8.236,0.613
CCO[C@@H]1C[C@H]2CN(S(=O)(=O)c3cccs3)CCN2C1,-0.3288,7.429
Cc1nn(C)c(N(C)C)c1CNCCC(=O)NC1CCCC1,-31.01,-44.78
CC(C)CN1Cc2nc(N)ncc2C1=O,-19.34,1.52
Cc1cc(C(F)(F)F)nn1C(C)C(=O)NN1CCOCC1 (configuration not stated),-12,-11.14
COc1ccc(OC)c(CN(C(=O)c2ccc(C)[nH]c2=O)C2CC2)c1,-2.456,-9.008
C[C@@H]1CN(C2CCOC2)C[C@]12CCN(c1cccnc1)C2=O (some centres not stated),5.472,-19.76
CN(C)CCN1CCOCC12CCN(C(=O)C1CC1)CC2,-15,-15.43
Cc1cc(C)c(CNC(=O)NCC2Cc3ccccc3O2)c(=O)[nH]1 (configuration not stated),-5.246,-2.251
CCN1CCN(C)C2(CCN(Cc3ccc(C)o3)CC2)C1=O,-0.7718,-20.72
Cc1n[nH]c(C2CN(CC(=O)NCCc3ccccc3C)CCO2)n1 (configuration not stated),-15.73,-8.904
CCN1CCCC(C)(C(=O)NCCc2nnc(C)[nH]2)C1 (configuration not stated),-6.051,-26.04
CCC(C)(C)NC(=O)Nc1nnc(-c2ccccn2)s1,-2.072,-29.2
O=C(c1ncoc1-c1ccco1)N(Cc1ccco1)CC1CCCO1 (configuration not stated),-3.976,-36.55
CCc1ccc(CNc2ccccc2CN2CCC(O)CC2)o1,-3.879,-44.13
COc1c(CNCCc2c[nH]c3cc(F)ccc23)c(C)nn1C,12.16,-7.468
CN1CCC(N(Cc2ccco2)S(=O)(=O)c2cc(Br)ccc2Br)CC1,-4.491,-38.08
Cc1cc(CN2CC[C@H]3OCC[C@@]3(C(=O)N3CCOCC3)C2)no1,-1.942,-12.34
CCN(CC)CC1CN(CCc2ccccc2)Cc2nccn2C1 (configuration not stated),-3.182,-17.65
CC(C)CCc1noc(CN2CCCN(C(=O)c3ccco3)CC2)n1,-3.391,-18.48
CN1CCNC(=O)C1CC(=O)NCCc1cnn(-c2ccccc2)c1 (configuration not stated),-11.22,1.005
COc1ccc(S(=O)(=O)N2CCOC(Cn3ccnc3)C2)cc1 (configuration not stated),-23.35,-27.23
CC(=O)NC1CCN(c2ncnc3c2c(C)nn3C)C1 (configuration not stated),-0.1343,-41.04
CC(C)C(Nc1nc(C(F)(F)F)nc2ccccc12)C(=O)O (configuration not stated),6.095,-14.32
Cc1nccn1-c1cc(CNC(=O)N2CCSCC2)ccn1,-2.774,-5.885
CN1C(=O)CC(C(=O)O)C12CCN(c1ccc3c(n1)CCCC3)CC2 (configuration not stated),-3.617,-15.78
Cc1cc(C)n(-c2ccc(C(C)NS(=O)(=O)CCCS(C)(=O)=O)cc2)n1 (configuration not stated),-1.571,-12.3
Cc1nn(CCC#N)c(C)c1[C@@H]1C=C[C@@H](NCc2cccc(Cl)c2)C1,2.987,-53.09
OCCC1CN(c2ncnc3[nH]cnc23)CCN1Cc1ccccc1 (configuration not stated),-8.42,-3.048
Cn1ccc(C(=O)N2CCc3[nH]nc(Nc4ccccc4)c3C2)n1,-10.69,-6.444
Cc1ccc2[nH]nc(C(=O)NCC3CCN(Cc4c[nH]cn4)C3)c2c1 (configuration not stated),-0.9822,-49.67
CNC(=O)C1(c2cnccn2)CCCN1C(=O)Cc1ccsc1 (configuration not stated),1.34,10.33
Cc1nn(C(C)(C)C)c(=O)n1CC(=O)NC(C)(C)C,9.369,-17.03
Cc1cccc(N(CCC(N)=O)C(=O)c2cnccn2)c1,10.65,12.04
COc1cccc(-c2noc(C3CCN(Cc4ccc(C)cc4)C3)n2)c1 (configuration not stated),10.78,43.78
Cc1ccccc1C1(CNC(=O)NC(C)c2nncn2C)CC1 (configuration not stated),-31.14,-15.65
O=C(NCC1CC1)C1CSCN1S(=O)(=O)c1cccc(F)c1 (configuration not stated),0.6471,-7.124
CNC(=O)c1cccnc1NCc1ccc(-n2cccn2)cc1,-16.25,4.419
CN1C(=O)CC(c2cnn(C)c2)C12CCN(C(=O)c1ccno1)CC2 (configuration not stated),10.68,-17.68
Cc1cc(NC(=O)c2ccc(CN3CC[C@H](O)C3)cc2)ccc1F,5.372,0.6072
Cc1cc(CC(C)Nc2ncc(C)c(N(C)C)n2)[nH]n1 (configuration not stated),-5.219,-5.039

Some entries from above, unchanged:

structure	ClpP1P2	Pks13 thioesterase
CCC(=O)NCC(=O)Nc1ncc(I)cc1C	-11.05	0.1005
Cc1cc(C(F)(F)F)nn1C(C)C(=O)NN1CCOCC1 (configuration not stated)	-12	-11.14
Cc1nn(CCC#N)c(C)c1[C@@H]1C=C[C@@H](NCc2cccc(Cl)c2)C1	2.987	-53.09
c1ccc(-c2nc(CNC3CCc4ncnn4C3)co2)cc1 (configuration not stated)	5.413	-9.854
COc1cccc(-c2noc(C3CCN(Cc4ccc(C)cc4)C3)n2)c1 (configuration not stated)	10.78	43.78
O=C(NCC1CC1)C1CSCN1S(=O)(=O)c1cccc(F)c1 (configuration not stated)	0.6471	-7.124

Data taken from ChEMBL document CHEMBL3988442, “University of Dundee, Small-Polar-MMV Screening Library” (2021).